Measurements taken from patent US20250129143A1.
No constants are given. Whether binding was seen depends on the method and setting. Sequences can lack the tags named with a protein.

Target: Stv.
Test: bio-layer interferometry, streptavidin sensor; 'anti-Stv.' is read as clone A against streptavidin without ubiquitin [panel B, Clone A]

binding: no binding (tested: 20 nM)
B1: anti-ubiquitin monobody clone A, Monobody-Nus tag-His6 recombinant protein (designed binder, not shown: small tags and cut ends)
chain: LEVVEASPTSIQISWDAYPYYIIGETVRYYRITYGETGGNSPVQEFTVPGSKSTATISGLKPGVDYTITVYAVTYYGNAFWGWPPISINYRTHHHHHH
